Assay results as given in patent publication US8846633B2, “Method for inhibiting cancer stem cell like properties and chemoradioresistant properties of cancer or tumor cells with microRNA145” (Taipei Veterans General Hospital, priority 2011, dated 2014).
At least one compound was matched to its structure with a doubt left.

System: GBM-CD133+ cells
Test: survival of recipients of GBM-CD133+ cells
Type: in vivo, mice
Details: radiotherapy plus TMZ; vs PU-PEI alone

## Cn1nnc2c(C(N)=O)ncn2c1=O [TMZ, temozolomide]
  mortality induced by GBM tumorigenesis: reduced
